Earlier results in patent US20070276024A1, “Methods for Treating Diseases and Conditions with Inverse Agonists and for Screening for Agents Acting as Inverse Agonists” (Inverseon , Inc., priority 2003, published 2007).

Conditions: after oral intake; cited from earlier work

In the case of CC(C)[N+]1(C)[C@@H]2CC[C@H]1C[C@@H](OC(=O)C(CO)c1ccccc1)C2 (stereo partly shown) [Ipratropium bromide], the “time of peak plasma concentrations” value is given as 3 h.
